Among the data in PMC7955084 are binding values, retold here.

No constants are given. Whether binding was seen depends on the method and setting.

For assay [1], the target named is human MCM10 internal domain (hMCM10-ID), wild type, residues 236-435 (human) (UniProt Q7L590). In words: SEC; analytical size-exclusion chromatography, Superdex 75 Increase 10/300 GL; 200 µL at 5 mg ml^−1 injected; 20 mM Tris-HCl pH 7.4, 500 mM NaCl, 5 mM β-mercaptoethanol; 0.4 mL min^−1; 4 °C; calibrated with molecular weight standards; both purified.
Assay [2] concerns the target human MCM10 internal domain lacking the N-terminal 27 residues (ΔN27 hMCM10-ID), residues 263-435 (human) (UniProt Q7L590). Described as above.

B1: human MCM10 internal domain (hMCM10-ID), wild type, residues 236-435 (domain or fragment, UniProt Q7L590-2 236-435)
chain: GPSSGETTQPICVEAFSGLRLRRPRVSSTEMNKKMTGRKLIRLSQIKEKMAREKLEEIDWVTFGVILKKVTPQSVNSGKTFSIWKLNDLRDLTQCVSLFLFGEVHKALWKTEQGTVVGILNANPMKPKDGSEEVCLSIDHPQKVLIMGEALDLGTCKAKKKNGEPCTQTVNLRDCEYCQYHVQAQYKKLSAKRADLQSTFSG
As to B1, the binding result in assay [1] was “no binding (tested: 5 mg ml^−1)”.

B2: human MCM10 internal domain lacking the N-terminal 27 residues (ΔN27 hMCM10-ID), residues 263-435 (domain or fragment, UniProt Q7L590-2 263-435)
chain: GPEMNKKMTGRKLIRLSQIKEKMAREKLEEIDWVTFGVILKKVTPQSVNSGKTFSIWKLNDLRDLTQCVSLFLFGEVHKALWKTEQGTVVGILNANPMKPKDGSEEVCLSIDHPQKVLIMGEALDLGTCKAKKKNGEPCTQTVNLRDCEYCQYHVQAQYKKLSAKRADLQSTFSG
Take B2: the binding entry in assay [2] was “no binding (tested: 5 mg ml^−1)”.
